In PubChem BioAssay AID463183 (Sanford-Burnham Center for Chemical Genomics, 2010):
The list shows a part of the results. The main result of the screen is listed elsewhere. These columns were measured beside it and carry no call. Most of these compounds were active or inconclusive in the main read-out, so they are no random draw.

Experiment: hepatocyte lipid droplet accumulation inhibitors, confirmation, imaging, AML12 mouse hepatocytes, single concentration, high-content (AID 463183);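 further: cells counted after overnight compound exposure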
Conditions: BODIPY lipid droplet imaging, measured here: cell count, cytotoxicity, at 5.2 µM, droplets induced with 100 µM oleic acid

| SMILES | cell count |
| --- | --- |
| O=C(CSCC(=O)N1CCCc2ccccc21)Nc1nc(-c2ccccc2)cs1 | 1620 cells |
| Nc1cc(Nc2ccccc2)c2nonc2c1[N+](=O)[O-] | 1540 cells |
| CCOc1ccc(CCNC(=O)CCS(=O)(=O)c2ccc(OC)cc2)cc1OCC | 1620 cells |
| C/C(=C\c1cccc(Cl)c1Cl)C(=O)c1c(C)cc(C)[nH]c1=O | 1560 cells |
| COc1ccc(Cl)cc1CNCCCSc1ncccn1 | 1580 cells |
| CCc1cc(SC#N)cc(CC)c1NC(=O)CCl | 1550 cells |
| O=c1c(C/C=C/c2ccccc2)c(O)ccn1CCc1c[nH]c2ccccc12 | 1600 cells |
| CCN(CC)c1ccc(NC(=O)CN2CCN(S(=O)(=O)c3cc(Cl)ccc3OC)CC2)cc1 | 1640 cells |
| CC1CC(C)CN(C(=O)c2ccc3c(c2NCCO)C(=O)c2ccccc2C3=O)C1 (stereo not given) | 1570 cells |
| O=C(NCc1ccc(C(=O)O)cc1)OCc1ccccc1 | 1530 cells |
| O=C(NCc1ccccc1)C(c1ccccc1F)N(C(=O)c1csnn1)C1CCCC1 (stereo not given) | 1610 cells |
| CCCc1nc2ccccc2c(C(=O)OC(C)C(=O)NCc2ccc3c(c2)OCO3)c1CC (stereo not given) | 1630 cells |
| Cc1ccccc1N1CCN(C(=S)c2ccc(-c3ccc([N+](=O)[O-])cc3)o2)CC1 | 1600 cells |
| CC(=O)c1c(C)[nH]c(C(=O)Nc2nc(-c3ccc(-c4ccccc4)cc3)cs2)c1C | 1590 cells |
| COc1ccccc1N1N=C(c2ccc([N+](=O)[O-])cc2)CC1c1ccccc1 (stereo not given) | 1640 cells |
| Cc1ccc(-n2nc3c(=O)n(CC(=O)NC4CCCCC4)nc(C)c3c2C)cc1 | 1640 cells |
| Cc1ccc(C2/C(=C(/O)c3cnn(-c4ccccc4)c3C)C(=O)C(=O)N2CCCN2CCOCC2)o1 (stereo not given) | 1530 cells |
| COc1ccc(C)cc1S(=O)(=O)N(CC(=O)Nc1cc([N+](=O)[O-])ccc1C)c1ccc(C)c(C)c1 | 1540 cells |
| COc1ccc(Cl)c(NC(=O)C/C(C)=N/NC(=O)CCc2ccccc2)c1 | 1600 cells |
| O=C/C=C/c1c(-c2ccccc2)cc2oc3ccccc3cc1-2 | 1580 cells |

| SMILES | cell count |
| --- | --- |
| CC(=O)c1cccc(N=Nc2c(-c3ccccc3)[nH]n(-c3ccccc3)c2=O)c1 | 1680 cells |
| Cc1ccc(-n2cccc2/C=C2/NC(=O)N(CC(=O)Nc3cccc(C)c3)C2=O)cc1 | 1610 cells |
| CCCOC(=O)c1ccc(NC(=O)c2ccc(Br)o2)cc1 | 1660 cells |
| c1cc[n+](CCC[n+]2ccccc2)cc1 | 1560 cells |
| Cc1ccc(-c2c(C(=O)NC(C)C)oc(=O)c3ccccc23)cc1 | 1540 cells |
| O=[N+]([O-])c1sccc1CS(=O)(=O)c1ccccc1 | 1680 cells |
| COc1ccc(C(=O)OC(C)C(=O)Nc2cc(C(F)(F)F)ccc2Cl)c(OC)c1OC (stereo not given) | 1630 cells |
| CCOC(=O)c1ccc(NC(=O)COc2ccc(S(=O)(=O)NC(C)(C)C)cc2)cc1 | 1630 cells |
| CC1(C)Oc2ccc3ccc(=O)oc3c2/C(=C/Nc2ccc(O)cc2)C1=O | 1700 cells |
| Cc1cc(N2CCOCC2)n2nc(C)c(-c3ccc(Cl)cc3)c2n1 | 1550 cells |
| CCOc1ccc(CCNC(=O)CS(=O)Cc2nc(-c3ccc(OC)c(OC)c3)oc2C)cc1OCC (stereo not given) | 1550 cells |
| CCc1ccc(OCC(=O)N/N=C(\C)c2ccc(-n3ccnc3)cc2)cc1 | 1580 cells |
| CCOc1ccc(CCNC(=O)Cn2cccc2C(=O)c2ccccc2)cc1OCC | 1570 cells |
| CCOc1ccc(C2=Nc3ccc(Br)cc3C(c3ccc(N4CCOCC4)cc3)=NN2)cc1 | 1600 cells |
| CCOc1ccc(C(=O)NCCNC(=O)c2ccc(OCC)cc2)cc1 | 1650 cells |
| CCOc1ccccc1NC(=O)c1cccc(NC(=O)C2CCCC2)c1 | 1640 cells |
| CCCCN(CCCNC(=O)CN1C(=O)COc2ccccc21)c1ccccc1 | 1580 cells |
| CCCCOc1ccc(C(C)NC(=O)CCS(=O)(=O)Cc2ccc(C)cc2)cc1 (stereo not given) | 1600 cells |
| CCCCSCCCNC(=O)c1ccc2c(c1)N(CC)C(=O)c1ccccc1S2=O (stereo not given) | 1560 cells |
| Cc1cc(=O)oc2cc(OCC(=O)NCCCN3CCCC3=O)ccc12 | 1630 cells |

Among those listed so far, seven contain a Cl atom:

| SMILES | cell count |
| --- | --- |
| C/C(=C\c1cccc(Cl)c1Cl)C(=O)c1c(C)cc(C)[nH]c1=O | 1560 cells |
| COc1ccc(Cl)cc1CNCCCSc1ncccn1 | 1580 cells |
| CCc1cc(SC#N)cc(CC)c1NC(=O)CCl | 1550 cells |
| CCN(CC)c1ccc(NC(=O)CN2CCN(S(=O)(=O)c3cc(Cl)ccc3OC)CC2)cc1 | 1640 cells |
| COc1ccc(Cl)c(NC(=O)C/C(C)=N/NC(=O)CCc2ccccc2)c1 | 1600 cells |
| COc1ccc(C(=O)OC(C)C(=O)Nc2cc(C(F)(F)F)ccc2Cl)c(OC)c1OC (stereo not given) | 1630 cells |
| Cc1cc(N2CCOCC2)n2nc(C)c(-c3ccc(Cl)cc3)c2n1 | 1550 cells |
